Measured values from paper PMC9260856.
These are yes or no findings as the source states them, for the method shown. In cells and extracts the contact can be indirect. Here binding means that the protein was enriched with, or labelled near, the bait; the list need not be complete. Where a sequence is shown, tags or fusion partners need not be part of it.

Chains of the proteins cited; added tags and fusions are not shown.
UniProt Q93009: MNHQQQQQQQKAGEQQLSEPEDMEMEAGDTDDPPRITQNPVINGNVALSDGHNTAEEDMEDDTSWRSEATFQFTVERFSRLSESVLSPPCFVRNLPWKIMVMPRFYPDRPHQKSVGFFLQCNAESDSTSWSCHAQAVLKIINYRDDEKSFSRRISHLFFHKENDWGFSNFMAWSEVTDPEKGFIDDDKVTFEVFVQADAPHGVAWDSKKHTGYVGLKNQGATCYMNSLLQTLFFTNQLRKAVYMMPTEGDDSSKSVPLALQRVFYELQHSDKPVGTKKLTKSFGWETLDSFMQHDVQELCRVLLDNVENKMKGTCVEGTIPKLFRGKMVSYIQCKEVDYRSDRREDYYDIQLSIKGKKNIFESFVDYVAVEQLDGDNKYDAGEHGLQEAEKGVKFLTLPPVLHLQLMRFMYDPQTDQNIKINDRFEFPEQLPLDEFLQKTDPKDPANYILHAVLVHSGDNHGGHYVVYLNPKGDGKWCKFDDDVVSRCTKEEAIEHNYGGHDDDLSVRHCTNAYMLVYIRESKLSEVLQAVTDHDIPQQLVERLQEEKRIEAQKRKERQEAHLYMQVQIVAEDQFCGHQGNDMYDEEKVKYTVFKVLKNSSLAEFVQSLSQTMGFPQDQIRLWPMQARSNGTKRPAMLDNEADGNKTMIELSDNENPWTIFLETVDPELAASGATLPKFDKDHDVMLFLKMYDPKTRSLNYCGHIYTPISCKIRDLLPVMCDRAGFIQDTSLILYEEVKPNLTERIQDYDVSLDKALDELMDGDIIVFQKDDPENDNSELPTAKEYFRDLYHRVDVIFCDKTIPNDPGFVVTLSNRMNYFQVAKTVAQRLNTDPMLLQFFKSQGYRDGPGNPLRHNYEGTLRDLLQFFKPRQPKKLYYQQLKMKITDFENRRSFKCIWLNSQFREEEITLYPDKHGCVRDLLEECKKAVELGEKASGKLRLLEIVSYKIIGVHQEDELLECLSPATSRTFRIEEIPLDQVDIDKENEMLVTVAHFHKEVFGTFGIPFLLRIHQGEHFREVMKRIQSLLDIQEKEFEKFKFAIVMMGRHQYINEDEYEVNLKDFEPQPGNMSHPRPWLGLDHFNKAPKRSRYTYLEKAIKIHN
UniProt O75618: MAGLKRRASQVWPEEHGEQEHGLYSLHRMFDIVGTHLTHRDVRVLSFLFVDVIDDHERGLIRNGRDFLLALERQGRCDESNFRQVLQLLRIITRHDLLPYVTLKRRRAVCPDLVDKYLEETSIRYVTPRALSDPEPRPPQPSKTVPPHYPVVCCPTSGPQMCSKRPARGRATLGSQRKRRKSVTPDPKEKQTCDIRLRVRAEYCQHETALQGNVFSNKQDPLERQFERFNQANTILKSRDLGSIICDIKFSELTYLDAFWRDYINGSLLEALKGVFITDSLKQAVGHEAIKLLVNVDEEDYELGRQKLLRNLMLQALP
UniProt P63208: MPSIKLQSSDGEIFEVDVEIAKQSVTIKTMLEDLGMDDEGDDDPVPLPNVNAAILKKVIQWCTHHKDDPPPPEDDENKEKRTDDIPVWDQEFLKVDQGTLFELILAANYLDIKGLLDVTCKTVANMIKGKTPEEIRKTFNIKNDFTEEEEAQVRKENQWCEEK

T1: StrepII-FLAG-tagged FBXO38 (SF-FBXO38), expressed in HeLa cells (human) (UniProt Q6PIJ6)
T1 sequence: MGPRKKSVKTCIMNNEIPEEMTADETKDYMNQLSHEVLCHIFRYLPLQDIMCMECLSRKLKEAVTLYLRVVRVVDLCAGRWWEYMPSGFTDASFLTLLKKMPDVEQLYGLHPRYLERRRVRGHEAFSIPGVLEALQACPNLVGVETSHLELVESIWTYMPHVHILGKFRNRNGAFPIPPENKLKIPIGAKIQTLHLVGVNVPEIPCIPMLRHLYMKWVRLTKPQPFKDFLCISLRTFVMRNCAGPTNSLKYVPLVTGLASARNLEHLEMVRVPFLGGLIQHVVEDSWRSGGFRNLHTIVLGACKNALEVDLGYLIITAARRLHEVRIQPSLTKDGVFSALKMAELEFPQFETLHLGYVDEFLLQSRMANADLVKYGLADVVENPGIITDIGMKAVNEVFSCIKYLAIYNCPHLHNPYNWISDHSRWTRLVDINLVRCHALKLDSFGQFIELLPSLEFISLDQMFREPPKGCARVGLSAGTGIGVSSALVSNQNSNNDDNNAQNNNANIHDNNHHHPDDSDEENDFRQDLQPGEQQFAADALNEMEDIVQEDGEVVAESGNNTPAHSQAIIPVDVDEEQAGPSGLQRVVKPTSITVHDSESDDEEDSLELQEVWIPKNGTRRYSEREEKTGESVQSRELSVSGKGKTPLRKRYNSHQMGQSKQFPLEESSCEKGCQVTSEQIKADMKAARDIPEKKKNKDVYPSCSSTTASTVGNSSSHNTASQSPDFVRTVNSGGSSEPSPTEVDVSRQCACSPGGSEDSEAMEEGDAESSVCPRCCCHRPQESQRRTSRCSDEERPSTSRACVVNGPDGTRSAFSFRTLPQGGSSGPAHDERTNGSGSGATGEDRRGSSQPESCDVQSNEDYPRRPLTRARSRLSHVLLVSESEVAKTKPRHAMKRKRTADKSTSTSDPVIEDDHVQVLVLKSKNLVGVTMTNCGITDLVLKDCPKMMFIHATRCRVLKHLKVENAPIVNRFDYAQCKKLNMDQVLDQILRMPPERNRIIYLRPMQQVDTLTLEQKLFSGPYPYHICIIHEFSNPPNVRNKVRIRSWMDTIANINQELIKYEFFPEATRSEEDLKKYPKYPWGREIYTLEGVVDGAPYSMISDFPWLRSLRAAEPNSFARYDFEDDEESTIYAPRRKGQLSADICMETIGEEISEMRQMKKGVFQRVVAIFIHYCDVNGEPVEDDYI

T2: StrepII-FLAG-tagged ZXDA (SF-ZXDA), transfected in HEK293T cells (human) (UniProt P98168)
T2 sequence: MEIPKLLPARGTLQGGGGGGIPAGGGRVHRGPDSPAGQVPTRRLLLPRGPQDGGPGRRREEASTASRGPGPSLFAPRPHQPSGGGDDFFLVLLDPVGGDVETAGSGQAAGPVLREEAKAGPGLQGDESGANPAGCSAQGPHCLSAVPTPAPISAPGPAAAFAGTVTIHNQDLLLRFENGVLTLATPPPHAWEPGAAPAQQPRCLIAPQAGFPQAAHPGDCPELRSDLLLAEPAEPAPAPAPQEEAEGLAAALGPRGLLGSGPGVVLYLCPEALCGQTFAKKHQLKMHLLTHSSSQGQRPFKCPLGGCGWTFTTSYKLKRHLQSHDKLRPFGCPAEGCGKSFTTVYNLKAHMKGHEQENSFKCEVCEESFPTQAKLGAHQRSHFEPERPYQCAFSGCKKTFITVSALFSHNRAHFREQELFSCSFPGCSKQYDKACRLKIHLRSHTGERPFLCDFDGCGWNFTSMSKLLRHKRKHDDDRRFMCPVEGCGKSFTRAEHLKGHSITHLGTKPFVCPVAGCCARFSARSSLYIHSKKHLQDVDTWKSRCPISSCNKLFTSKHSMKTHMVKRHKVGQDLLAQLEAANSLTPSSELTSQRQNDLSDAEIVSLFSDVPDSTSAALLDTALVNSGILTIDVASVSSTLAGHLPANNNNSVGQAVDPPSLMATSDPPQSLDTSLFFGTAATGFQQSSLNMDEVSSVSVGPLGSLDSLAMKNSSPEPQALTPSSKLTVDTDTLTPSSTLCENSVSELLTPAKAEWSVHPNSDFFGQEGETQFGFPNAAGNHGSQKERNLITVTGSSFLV


Legend:
[1] = target: T1, StrepII-FLAG-tagged FBXO38 (SF-FBXO38), expressed in HeLa cells (human); assay: affinity purification with mass spectrometry; SF-FBXO38 affinity-purified from HeLa cells, LC-MS/MS; parental HeLa cells as negative control
[2] = target: T2, StrepII-FLAG-tagged ZXDA (SF-ZXDA), transfected in HEK293T cells (human); assay: affinity purification with mass spectrometry; SF-ZXDA affinity-purified from transiently transfected HEK293T cells, whole-cell lysates prepared with turbonuclease, LC-MS/MS

| Molecule | binding [1] | binding [2] |
| --- | --- | --- |
| USP7 deubiquitinase, endogenous in HeLa cells (from UniProt Q93009 1-1102) (enzyme) | binds | – |
| centromere protein B (CENP-B), endogenous in HEK293T cells (protein, UniProt P07199 1-599) MGPKRRQLTFREKSRIIQEVEENPDLRKGEIARRFNIPPSTLSTILKNKRAILASERKYGVASTCRKTNKLSPYDKLEGLLIAWFQQIRAAGLPVKGIILKEKALRIAEELGMDDFTASNGWLDRFRRRHGVVSCSGVARARARNAAPRTPAAPASPAAVPSEGSGGSTTGWRAREEQPPSVAEGYASQDVFSATETSLWYDFLPDQAAGLCGGDGRPRQATQRLSVLLCANADGSEKLPPLVAGKSAKPRAGQAGLPCDYTANSKGGVTTQALAKYLKALDTRMAAESRRVLLLAGRLAAQSLDTSGLRHVQLAFFPPGTVHPLERGVVQQVKGHYRQAMLLKAMAALEGQDPSGLQLGLTEALHFVAAAWQAVEPSDIAACFREAGFGGGPNATITTSLKSEGEEEEEEEEEEEEEEGEGEEEEEEGEEEEEEGGEGEELGEEEEVEEEGDVDSDEEEEEDEESSSEGLEAEDWAQGVVEAGGSFGAYGAQEEAQCPTLHFLEGGEDSDSDSEEEDDEEEDDEDEDDDDDEEDGDEVPVPSFGEAMAYFAMVKRYLTSFPIDDRVQSHILHLEHDLVHVTRKNHARQAGVRGLGHQS | – | binds |

Now from value to molecule:

| binding [1] | binding [2] | Molecule |
| --- | --- | --- |
| binds | – | DEDD, endogenous in HeLa cells (from UniProt O75618 1-318) |
| binds | – | SKP1, endogenous in HeLa cells (from UniProt P63208 1-163) |
